Our source for the binding values is patent US20160115467A1 (Biogen, published 2016).

To fix the notation:
B1: 18F7 (antibody, V domains shown)
VH: QVQLKESGPGLVAPSQSLSITCTVSGFSLTSYGVSWVRQPPGKGLEWLGIIWGDGSTNYHSVLKSRLSISKDNSKSQVFLKLNSLQTDDTATYYCAKQDFDVWGAGTTVTVSS
VL: DVQMIQSPFSLSASLGDIVTMTCQASQGTSINLNWFQQKPGKAPKLLIYGVSNLEDGVPSRFSGSRYGTDFTLTIGSLEDEDMATYFCLQHSYLPYTFGGGTKLEIKR
notes: Mouse monoclonal from BALB/c hybridoma, tested as hybridoma supernatant; also called 18F7 antibody
B2: 28F4 (antibody, V domains shown)
VH: EVQLVESGGDLVKPGGSLKLSCAASGFTFSNYGMSWVRQTPDKRLEWVATISSGGTYTYYPDSVKGQFTIFRDNAKNTLYLQMSSLKSEDTAMYYCTRRDYDYEGFAYWGQGTLVTVS
VL: DIVLTQSPATLSVTPGDSVSLSCRASQSISNNLHWYQQKSHESPRLLIKYASHSISGIPSRFSGSGSGTDFTLSINSVETEDFGMYFCQQSNNWPFTFGSGTKLEIKR
notes: Mouse monoclonal from BALB/c hybridoma, tested as hybridoma supernatant; also called 28F4 antibody
B3: 1H6 (antibody, V domains shown)
VH: QVQLQQSGAELVRPGTSVKVSCKASGYAFTNYLIEWVKQRPGQGLEWIGVINPGSGGTNYNEKFKGKATLTADKSSSTAYMHLSSLTSDDSAVYFCARGRYEWYFDVWGAGTTVTVSS
VL: DIQMTQTTSSLSASLGDRVTISCRASQDITNYLNWYQRKPDGTVKLLIYYTSRLHSGVPSRFSGSGSGTDYSLTISNLEQEDIATYFCQQGYTLPYTFGGGTKLEIKR
notes: Mouse monoclonal from BALB/c hybridoma, tested as hybridoma supernatant; also called 1H6 antibody
B4: 38G8 (antibody, V domains shown)
VH: B3 VH
VL: B3 VL
B5: 12B2 (antibody, V domains shown)
VH: QVQLQQSGAELTKPGASVKISCKATGYTFSSYWIEWVKQRPGHGLEWIGEILPGSGITKYNDKFKGKATFTADTSSNTAYMQLSSLTSEDSAVYSCARLISYYYAMDYWGQGTSVTVSS
VL: B3 VL with T30S, R38Q, Y92N, Y96P
notes: Mouse monoclonal from BALB/c hybridoma, tested as hybridoma supernatant; also called 12B2 antibody
B6: 38A8 (antibody, V domains shown)
VH: B3 VH with V37I, H82Q
VL: B3 VL with T30S, Q37L, R38Q, T74S
notes: Mouse monoclonal from BALB/c hybridoma, tested as hybridoma supernatant; also called 38A8 antibody
B7: 28C2 (antibody, V domains shown)
VH: QVTLKASGPGIVQPSQTLSLTCSFSGFSLNTSGMGVGWIRQPSGKGLEWLAHIWWDDDKRYNPALKSRLTISKDTSNNQIFLKIASVDTADTATYYCARSHYYGTFYFDYWGQGTTLTVSS
VL: DVQITQSPSYLAASPGETITINCRASKSISKYLAWYQEKPGTTYKLLIYSGSTLQSGIPSRFSGSGSGTDFTLTISSLEPEDFAMYYCQQHIEYPWTFGGGTKLEIKR
notes: Mouse monoclonal from BALB/c hybridoma, tested as hybridoma supernatant; also called 28C2 antibody
B8: 9D6 (antibody, V domains shown)
VH: QVTLKESGPGILQPSQTLSLTCSFSGFSLSTSGMGVGWIRQSSGKGLEWLAHIWWDDDKRYNPTLKSRLTISKDTSNNQVFLKIANMDTADIATYYCARSHYNGTFYFDFWGQGITLTVSS
VL: B7 VL with T42K, Y44N, S77T
notes: Mouse monoclonal from BALB/c hybridoma, tested as hybridoma supernatant; also called 9D6 antibody
B9: 34D10 (antibody, V domains shown)
VH: EVKLVESGGGLVKPGGSLKLSCAASGFTFSAYAMSWVRQTPEKRLEWVASISSGGTTYYPDSVKRRFTISRDNARNILYLQMSSLRSEDTAMYYCTRGGDYGYALDYWGQGTSVTVSS
VL: ENVLTQSPAIMSASLGEKVTMSCRASSSVNYMYWYQQKSDASPKLWIYYTSNLAPGVPARFSGSGSGNSYSLTISSMEGEDAATYYCQQFSSSPWTFGGGTKLEIKR
notes: Mouse monoclonal from BALB/c hybridoma, tested as hybridoma supernatant (detected with anti-mouse IgG); also called monoclonal antibody 34D10; 34D10 antibody
B10: 35D1 (antibody, V domains shown)
VH: B9 VH
VL: B9 VL
B11: 4B11 (antibody, V domains shown)
VH: B9 VH with A31S, E46A, T56N, T57I, Y59F, R65G, N73D, S83R, T96A, L105M
VL: B9 VL with S22N, Y48F, T101S
notes: Mouse monoclonal from BALB/c hybridoma, tested as hybridoma supernatant; also called 4B11 antibody
B12: 36A8 (antibody, V domains shown)
VH: B9 VH with K3R, A31T, S52N, S53G, T56S, R65G, S83R, T96A
VL: B9 VL with S22N, Y48F, T101S
notes: Mouse monoclonal from BALB/c hybridoma, tested as hybridoma supernatant; also called 36A8 antibody

Substitutions are numbered along the chain they refer to. Results are given in words; binding and its absence hold for the method and conditions named. A result given as binding can be weak or reduced; the word gives no strength.

One assay deals with human GPIIb/IIIa (αIIbβ3), purified protein (human). The experiment in a line: ELISA on GPIIb/IIIa, signal low relative to flow cytometry. On the technique in general: An ELISA detects its analyte on a solid surface through an enzyme-linked reagent.
On to B1, for which the binding entry is reported as “binds”.
The same measure, in the same setting: then B2, with “binds”.

The target is the same in a further assay. The experiment in a line: ELISA, binding to the α and/or β subunit of GPIIb/IIIa.
Take B1: the binding result is “binds”.
Regarding B3, the binding result is on record as “binds”.
On to B4, for which the binding entry is “binds”.
Take B5: the binding entry is reported as “binds”.
With B6, the binding result is “binds”.
On to B7, for which the binding result is “binds”.
Same read-out and setting: to B8 belongs “binds”.
Same read-out and setting: to B9 belongs “binds”.
Same read-out and setting: then B10, with “binds”; and B11, with “binds”.
Take B12: the binding entry is “binds”.
For the molecule B2, the binding result is listed as “binds”.
